{"source": "patent US20160090556A1", "about": "“PRODUCTS COMPRISING MALODOR REDUCTION MATERIALS” (The Procter & Gamble Company, priority 2014, published 2016)", "data": [{"assay": "Melamine formaldehyde PMC leakage", "conditions": "not given", "values": [{"smiles": "CC(CCO)CCc1ccccc1", "note": "(centres unmarked) [Material 962]", "Melamine formaldehyde PMC leakage (Comment Code J)": "J (Melamine formaldehyde PMC leakage less than or equal to 5%)"}, {"smiles": "CC1CCC(C(C)C)C(=O)C1", "note": "(centres unmarked) [Material 905]", "Melamine formaldehyde PMC leakage (Comment Code J)": "J (Melamine formaldehyde PMC leakage less than or equal to 5%)"}, {"smiles": "CC(C)=CCC/C(C)=C/CC/C(C)=C/CO", "note": "[Material 1065]", "Melamine formaldehyde PMC leakage (Comment Code J)": "J (Melamine formaldehyde PMC leakage less than or equal to 5%)"}, {"smiles": "C=CC(C)=CCC=C(C)CCC=C(C)C=O", "note": "[Material 691]", "Melamine formaldehyde PMC leakage (Comment Code J)": "J (Melamine formaldehyde PMC leakage less than or equal to 5%)"}, {"smiles": "CCC(O)COC1CCCCC1C(C)(C)C", "note": "(centres unmarked) [Material 677]", "Melamine formaldehyde PMC leakage (Comment Code J)": "J (Melamine formaldehyde PMC leakage less than or equal to 5%)"}, {"smiles": "CCCCCC(C=O)=Cc1ccc(C)cc1", "note": "[Material 769]", "Melamine formaldehyde PMC leakage (Comment Code J)": "J (Melamine formaldehyde PMC leakage less than or equal to 5%)"}, {"smiles": "COCCOC(C)OCc1ccccc1", "note": "(centres unmarked) [Material 768]", "Melamine formaldehyde PMC leakage (Comment Code J)": "J (Melamine formaldehyde PMC leakage less than or equal to 5%)"}, {"smiles": "CCCCCC1CC(=O)C=C(C)C1C(=O)OCC", "note": "(centres unmarked) [Material 591]", "Melamine formaldehyde PMC leakage (Comment Code J)": "J (Melamine formaldehyde PMC leakage less than or equal to 5%)"}, {"smiles": "CCC(=O)OC(C)(C)C1CC=C(C)CC1", "note": "(centres unmarked) [Material 686]", "Melamine formaldehyde PMC leakage (Comment Code J)": "J (Melamine formaldehyde PMC leakage less than or equal to 5%)"}, {"smiles": "CC(C)=C1CCC2=CC(=O)CC(C)C2(C)C1", "note": "(centres unmarked) [Material 684]", "Melamine formaldehyde PMC leakage (Comment Code J)": "J (Melamine formaldehyde PMC leakage less than or equal to 5%)"}, {"smiles": "C=CCCC(=O)C1=CCCC(C)(C)C1", "note": "[Material 697]", "Melamine formaldehyde PMC leakage (Comment Code J)": "J (Melamine formaldehyde PMC leakage less than or equal to 5%)"}, {"smiles": "C=CC(=C)CCC=C(C)CCC=C(C)C", "note": "[Material 628]", "Melamine formaldehyde PMC leakage (Comment Code J)": "J (Melamine formaldehyde PMC leakage less than or equal to 5%)"}, {"smiles": "Cc1ccc(CC(C)C=O)cc1", "note": "(centres unmarked) [Material 742]", "Melamine formaldehyde PMC leakage (Comment Code J)": "J (Melamine formaldehyde PMC leakage less than or equal to 5%)"}, {"smiles": "CC1=CCC(C23CCCC(C)(C2)OC3)C1(C)C", "note": "(centres unmarked) [Material 570]", "Melamine formaldehyde PMC leakage (Comment Code J)": "J (Melamine formaldehyde PMC leakage less than or equal to 5%)"}, {"smiles": "CC1=CC2C(CC1)C(C)=CCC2C(C)C", "note": "(centres unmarked) [Material 698]", "Melamine formaldehyde PMC leakage (Comment Code J)": "J (Melamine formaldehyde PMC leakage less than or equal to 5%)"}, {"smiles": "CC(=O)C1CC/C(C)=C\\CC/C(C)=C\\C/C=C/1C", "note": "(centres unmarked) [Material 1095]", "Melamine formaldehyde PMC leakage (Comment Code J)": "J (Melamine formaldehyde PMC leakage less than or equal to 5%)"}, {"smiles": "CC1=CCCC2(C)CCC(=C(C)C)CC12", "note": "(centres unmarked) [Material 1031]", "Melamine formaldehyde PMC leakage (Comment Code J)": "J (Melamine formaldehyde PMC leakage less than or equal to 5%)"}, {"smiles": "CC1=C2CC(C(C)(C)O)CCC2(C)CCC1", "note": "(centres unmarked) [Material 872]", "Melamine formaldehyde PMC leakage (Comment Code J)": "J (Melamine formaldehyde PMC leakage less than or equal to 5%)"}, {"smiles": "O=C1CCCC=CCCCCCCCCCC1", "note": "[Material 788]", "Melamine formaldehyde PMC leakage (Comment Code J)": "J (Melamine formaldehyde PMC leakage less than or equal to 5%)"}, {"smiles": "C=C1CCC2C3C(C(C)C)CCC2(C)C13", "note": "(centres unmarked) [Material 631]", "Melamine formaldehyde PMC leakage (Comment Code J)": "J (Melamine formaldehyde PMC leakage less than or equal to 5%)"}, {"smiles": "C=CCCCCCCCCC=O", "note": "[Material 871]", "Melamine formaldehyde PMC leakage (Comment Code J)": "J (Melamine formaldehyde PMC leakage less than or equal to 5%)"}, {"smiles": "CC1CC2CCC3C(C2O1)C(C)(C)C(C)C3(C)C", "note": "(centres unmarked) [Material 1097]", "Melamine formaldehyde PMC leakage (Comment Code J)": "J (Melamine formaldehyde PMC leakage less than or equal to 5%)"}, {"smiles": "CC(C)=CCCC1=CCC(C)(C=O)CC1", "note": "(centres unmarked) [Material 988]", "Melamine formaldehyde PMC leakage (Comment Code J)": "J (Melamine formaldehyde PMC leakage less than or equal to 5%)"}, {"smiles": "CC(C)(C)c1ccc(CCC=O)cc1", "note": "[Material 601]", "Melamine formaldehyde PMC leakage (Comment Code J)": "J (Melamine formaldehyde PMC leakage less than or equal to 5%)"}, {"smiles": "Cc1ccc(OC(=O)Cc2ccccc2)cc1", "note": "[Material 998]", "Melamine formaldehyde PMC leakage (Comment Code J)": "J (Melamine formaldehyde PMC leakage less than or equal to 5%)"}, {"smiles": "C[C@@H]1CC[C@H]2C(C)(C)[C@H]3C[C@@]12CC[C@@]3(C)O", "note": "[Material 569]", "Melamine formaldehyde PMC leakage (Comment Code J)": "J (Melamine formaldehyde PMC leakage less than or equal to 5%)"}]}, {"assay": "Melamine formaldehyde PMC leakage", "conditions": "class code letter within Comment Code", "values": [{"smiles": "C=CCCC(=O)/C=C/C1C(C)=CCCC1(C)C", "note": "(centres unmarked) [Material 559]", "Melamine formaldehyde PMC leakage (Comment Code J)": "J (Melamine formaldehyde PMC leakage less than or equal to 5%)"}, {"smiles": "CCCCCCCC(OC)OC", "note": "[Material 32]", "Melamine formaldehyde PMC leakage (Comment Code J)": "J (Melamine formaldehyde PMC leakage less than or equal to 5%)"}, {"smiles": "O=C1CCC=CCCCCCCCCCC1", "note": "[Material 371]", "Melamine formaldehyde PMC leakage (Comment Code J)": "J (Melamine formaldehyde PMC leakage less than or equal to 5%)"}, {"smiles": "CCCCCCCCC(C)C#N", "note": "(centres unmarked) [Material 342]", "Melamine formaldehyde PMC leakage (Comment Code J)": "J (Melamine formaldehyde PMC leakage less than or equal to 5%)"}, {"smiles": "CC1CCC(C(C)(C)O)CC2=C1CCC2C", "note": "(centres unmarked) [Material 292]", "Melamine formaldehyde PMC leakage (Comment Code J)": "J (Melamine formaldehyde PMC leakage less than or equal to 5%)"}, {"smiles": "CC1=CC2C(=C(C)CCC2C(C)C)CC1", "note": "(centres unmarked) [Material 465]", "Melamine formaldehyde PMC leakage (Comment Code J)": "J (Melamine formaldehyde PMC leakage less than or equal to 5%)"}, {"smiles": "CCCCCCCC1OCC(C)O1", "note": "(centres unmarked) [Material 30]", "Melamine formaldehyde PMC leakage (Comment Code J)": "J (Melamine formaldehyde PMC leakage less than or equal to 5%)"}, {"smiles": "CCC(=O)OCC=Cc1ccccc1", "note": "[Material 548]", "Melamine formaldehyde PMC leakage (Comment Code J)": "J (Melamine formaldehyde PMC leakage less than or equal to 5%)"}, {"smiles": "CCCCCCCCCCCCCC(=O)OC(C)C", "note": "[Material 196]", "Melamine formaldehyde PMC leakage (Comment Code J)": "J (Melamine formaldehyde PMC leakage less than or equal to 5%)"}, {"smiles": "C=C1CCC(C(C)C)C2C=C(C)CCC12", "note": "(centres unmarked) [Material 322]", "Melamine formaldehyde PMC leakage (Comment Code J)": "J (Melamine formaldehyde PMC leakage less than or equal to 5%)"}, {"smiles": "CC1(C)CCc2ccc(CCC=O)cc21", "note": "[Material 261]", "Melamine formaldehyde PMC leakage (Comment Code J)": "J (Melamine formaldehyde PMC leakage less than or equal to 5%)"}, {"smiles": "O=C(OC1CCCCC1)c1ccccc1O", "note": "[Material 482]", "Melamine formaldehyde PMC leakage (Comment Code J)": "J (Melamine formaldehyde PMC leakage less than or equal to 5%)"}, {"smiles": "CCc1ccccc1CC(C)(C)C=O", "note": "[Material 356]", "Melamine formaldehyde PMC leakage (Comment Code J)": "J (Melamine formaldehyde PMC leakage less than or equal to 5%)"}]}, {"assay": "Melamine formaldehyde PMC leakage", "conditions": "code J of the Comment Code column, Table 1", "values": [{"smiles": "CC1(C)C2CCC3(C2)C1C1(CCC3(C)C)OCCO1", "note": "(centres unmarked) [Material 1145]", "Comment Code: Melamine formaldehyde PMC leakage": "J (Melamine formaldehyde PMC leakage less than or equal to 5%)"}, {"smiles": "CC(=O)C1=C(C)[C@@H]2C[C@@]3(C1)[C@H](C)CC[C@H]3C2(C)C", "note": "[Material 1129]", "Comment Code: Melamine formaldehyde PMC leakage": "J (Melamine formaldehyde PMC leakage less than or equal to 5%)"}]}, {"assay": "Melamine formaldehyde PMC leakage", "conditions": "code letter J", "values": [{"smiles": "CC1(C)C2CCC3(C2)C1C1(CCC3(C)C)OCCO1", "note": "(centres unmarked) [Material 1145]", "Comment Code: Melamine formaldehyde PMC leakage": "J (Melamine formaldehyde PMC leakage less than or equal to 5%)"}, {"smiles": "CCOC1CCC(C(C)(C)CC)CC1", "note": "(centres unmarked) [Material 12]", "Comment Code: Melamine formaldehyde PMC leakage": "J (Melamine formaldehyde PMC leakage less than or equal to 5%)"}, {"smiles": "CC1=CCC(C23CCCC(C)(C2)OC3)C1(C)C", "note": "(centres unmarked) [Material 570]", "Comment Code: Melamine formaldehyde PMC leakage": "J (Melamine formaldehyde PMC leakage less than or equal to 5%)"}, {"smiles": "CC1(C)CCc2ccc(CCC=O)cc21", "note": "[Material 261]", "Comment Code: Melamine formaldehyde PMC leakage": "J (Melamine formaldehyde PMC leakage less than or equal to 5%)"}, {"smiles": "CC(=O)C1=C(C)[C@@H]2C[C@@]3(C1)[C@H](C)CC[C@H]3C2(C)C", "note": "[Material 1129]", "Comment Code: Melamine formaldehyde PMC leakage": "J (Melamine formaldehyde PMC leakage less than or equal to 5%)"}, {"smiles": "O=C1CCCC=CCCCCCCCCCC1", "note": "[Material 788]", "Comment Code: Melamine formaldehyde PMC leakage": "J (Melamine formaldehyde PMC leakage less than or equal to 5%)"}, {"smiles": "C=C1CCC2C3C(C(C)C)CCC2(C)C13", "note": "(centres unmarked) [Material 631]", "Comment Code: Melamine formaldehyde PMC leakage": "J (Melamine formaldehyde PMC leakage less than or equal to 5%)"}, {"smiles": "CC1CC2CCC3C(C2O1)C(C)(C)C(C)C3(C)C", "note": "(centres unmarked) [Material 1097]", "Comment Code: Melamine formaldehyde PMC leakage": "J (Melamine formaldehyde PMC leakage less than or equal to 5%)"}, {"smiles": "C[C@@H]1CC[C@H]2C(C)(C)[C@H]3C[C@@]12CC[C@@]3(C)O", "note": "[Material 569]", "Comment Code: Melamine formaldehyde PMC leakage": "J (Melamine formaldehyde PMC leakage less than or equal to 5%)"}]}]}
